The other results are listed elsewhere or left out.
These molecules were tested against HSP90AA1 (UniProt P07900) (assay: dose-dependent thermal stabilisation call (2D-TPP, DLPTP, 10% FDR) (binary (1 = stabilised)); higher = stabilised by the compound). Details: system: HL-60 intact cells; concentration range 0.04-10 µM.
Procedure: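 2D thermal proteome profiling in intact HL-60 cells treated with BRD-3811 (0, 0.04, 0.29, 2, 10 uM) for 90 min at 37 C, then heated 3 min at one of 12 temperatures (42-63.9 C). Soluble protein was quantified by TMT10 MS. The value is the DLPTP call of the paper: dose-dependent thermal stabilisation over all temperatures at 10% FDR (F-test of a dose-response against a flat model); one experiment, one call per tested protein.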
`COc1ccc(Cn2ccc3cc(C)c(C(=O)NO)cc32)cc1` was tested, and the “dose-dependent thermal stabilisation call” value was inactive: 0.

— the supplement of paper PMC7666118
